Laboratory results: PubChem BioAssay AID1347423 (Functional Genomics Laboratory (NCATS/FGL), 2020)
Hit rate of the full screen: of about 52,000 sequences, about 210 (0.4%) were called active.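 The calls were made as follows: active = gene whose silencing raises cell survival under the drug, median off-target-corrected z-score across its silencing RNAs 2 or more; inactive = the rest.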 The list shows a part of the results.

Experiment: Resistance to Poly (ADP-Ribose) Polymerase inhibitor: Gene Identification via Genome-wide siRNA Screen
Conditions: mouse BRCA2 R2336H ES cells, olaparib, CellTiter-Glo viability; stronger effect = higher value
Summary of the method: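 Mouse BRCA2 R2336H ES cells were reverse-transfected with siRNA (20 nM final), treated at 48 h with 500 nM olaparib, and read by CellTiter-Glo after 72 h. Scores: MAD-based z per siRNA, median per gene, seed off-target correction.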

Which z-score does the source give for GCAUAUGAUGGUCCUUACCTT against Cox6b here?
Its z-score is inactive: -0.818.

Which z-score does the source give for GGUCAUUCUCCAAGAACUATT against Ugp2 here?
The z-score was inactive: -0.689.

For GGUGCAGUUCAGCAACAAGTT against Mat2b, which z-score is on record?
The z-score was inactive: 2.14.

With GCAAUAGGCCUCUUAAUUATT against Sirt1 as the sequence, how does the z-score read?
The z-score was inactive: 1.55.

For CGGGAAGAGUAUCACUUACTT against Elac2, which z-score is on record?
The z-score was inactive: 0.995.

For GGUGGUGUUUCAUAAGAUGTT against Rragc, which z-score is on record?
Its z-score is inactive: 0.792.

With GGAGAACUCCAGGUUGGCATT against Eaf1 as the sequence, how does the z-score read?
Its z-score is inactive: -0.154.

For GCUGUUUCCCAGAGAAGAATT against Defb2, which z-score is on record?
The z-score was inactive: 0.265.

Which z-score does the source give for “GGAUGUUGUUCGAUUUGGATT against 1200002M06Rik” here?
Its z-score is inactive: -1.12.

For “GGAGAUGAUAAAGAUUAACTT against 3930401K13Rik”, which z-score is on record?
The z-score was inactive: -0.205.

Which z-score does the source give for “GGGCGGAGCAUUUUUCUUGTT against 1700013N18Rik” here?
Its z-score is inactive: -1.11.

For “GGCCAUCCAUUGAAGACAUTT against 4930509O22”, which z-score is on record?
Its z-score is inactive: 0.519.

For “CCCACUUCCGAUCCAAAGATT against 3110024A21Rik”, which z-score is on record?
Its z-score is inactive: -0.44.

For GGCUACGUAGGACAUGACUTT against Vmd2l3, which z-score is on record?
The z-score was inactive: 1.68.

With GGAAUUCAUACAGGAACUUTT against Mst1r as the sequence, how does the z-score read?
The z-score was inactive: 0.44.

For GGAAAAACUGAAACAGUUUTT against Eif3s10, which z-score is on record?
Its z-score is inactive: 0.338.

For CGAAAACGUACAAGAUGAATT against Nap1l4, which z-score is on record?
Its z-score is inactive: 0.845.

For GGUUGGAUUAUUAGGAAUUTT against Dnahc5, which z-score is on record?
Its z-score is inactive: -0.742.

Which z-score does the source give for CCUUUUGAUAGAGAAGAGCTT against Olfr1426 here?
The z-score was inactive: 0.651.

For GCAGAAAAACAUCCACGACTT against Spn, which z-score is on record?
Its z-score is inactive: 0.955.

Which z-score does the source give for GGAGUGAAAUUUCUGUAAUTT against Olfr796 here?
Its z-score is inactive: -0.0224.

With “GGUUCUUUUGGUCUUCGUGTT against 1810020G14Rik” as the sequence, how does the z-score read?
Its z-score is inactive: 0.106.

Which z-score does the source give for GGAUUGUCGAAUGGGUGCUTT against AI314976 here?
The z-score was inactive: -0.0925.

With GGUACCUCUGUAUUCAGCCTT against Olfr121 as the sequence, how does the z-score read?
Its z-score is inactive: -0.261.

Which z-score does the source give for GCCAACAUGUGUUUGUGUGTT against Krtap9-1 here?
The z-score was inactive: -0.702.

With CCUGGUACUGAUUACUCCATT against LOC384806 as the sequence, how does the z-score read?
The z-score was inactive: 0.324.

Which z-score does the source give for GCUUAGUUUAUGAGAAUGCTT against Ptprh here?
Its z-score is inactive: 0.566.

With GGAAAGAAAUAGUUAAGGGTT against Zfp239 as the sequence, how does the z-score read?
Its z-score is inactive: 0.635.

For “GCCAUAAAAGCCUCAUUAGTT against C130021I20”, which z-score is on record?
Its z-score is inactive: 1.3.

For GCAGCAAGACCUACGAAGATT against Sel1h, which z-score is on record?
Its z-score is inactive: -0.2.

Which z-score does the source give for GGAGGAGCGUACUAUUUAATT against Slc12a2 here?
The z-score was inactive: 0.378.

For GGACAAGAGUGAGAAGGAATT against Yaf2, which z-score is on record?
The z-score was inactive: -1.43.

Which z-score does the source give for GCGAUAUCUCAACUUCCCGTT against Fchsd1 here?
The z-score was inactive: 0.271.

Which z-score does the source give for GGAGCCUCACUGAAUGUCUTT against Ankrd10 here?
The z-score was inactive: -2.27.

For “GGAUAAAAAUCACCCACUGTT against 4932416F07Rik”, which z-score is on record?
The z-score was inactive: -0.0284.

For “GCGAGAAAGAAUUUAACCUTT against 1200013B08Rik”, which z-score is on record?
The z-score was inactive: 0.3.

For GCGCAACUGUGUCCUGUUATT against Olfr133, which z-score is on record?
Its z-score is inactive: -1.71.

Which z-score does the source give for GAAUGUGUUAUUCCCAAAATT against Olfr784 here?
Its z-score is inactive: 0.215.

For ACUGUUAACCAAGGAGAAATT against Ghrhr, which z-score is on record?
Its z-score is inactive: -0.514.

With “CGGCGGUGUGUUGUUUUAGTT against 8430410A17Rik” as the sequence, how does the z-score read?
The z-score was inactive: 1.14.

With GGAAAUCUCUGGGAUUGUATT against Rpa3 as the sequence, how does the z-score read?
Its z-score is inactive: -3.11.

For “GGAACAACAGGCAAUGAAUTT against C330011K17Rik”, which z-score is on record?
Its z-score is inactive: -1.2.

For GGAGUUAGAGCUGAGGUUATT against Ela1, which z-score is on record?
The z-score was inactive: -2.59.

Which z-score does the source give for “GGAAUUUGUGACCAACUAUTT against 4921506I22Rik” here?
The z-score was inactive: -0.392.

With “GGAAAAAAGCAAGAAAGACTT against 4933424F08Rik” as the sequence, how does the z-score read?
The z-score was inactive: 0.147.

With GGUAUUCUUUGAAGAAAACTT against Tbc1d14 as the sequence, how does the z-score read?
The z-score was inactive: 0.446.

Which z-score does the source give for GGAAAAACUAUGUUGCUGATT against C78409 here?
Its z-score is inactive: 0.716.

With CGGCACUCAACUCAGAUACTT against Commd1 as the sequence, how does the z-score read?
The z-score was inactive: -0.3.

For GGUAUUCAAUUGAUCGUCATT against Cdh11, which z-score is on record?
Its z-score is inactive: 1.18.

Which z-score does the source give for GGAAAAAAAUGCUGUAUACTT against Insm1 here?
Its z-score is inactive: 0.787.

With GGACAUGCUGGGUGAAGAATT against Ikbkg as the sequence, how does the z-score read?
Its z-score is inactive: -2.31.

Which z-score does the source give for GGAGAUACGCAGAGUUUGATT against Sgk3 here?
The z-score was inactive: 0.398.

Which z-score does the source give for CCUUCGUCGACAUUGCUGUTT against Zfp282 here?
The z-score was inactive: 0.744.

For GCCUGUCACCUGUAGCAACTT against Krtap12-1, which z-score is on record?
Its z-score is inactive: 0.404.

Which z-score does the source give for GGUUGCAUCUCUAGCUCCATT against Krt1-2 here?
Its z-score is inactive: -0.877.

Which z-score does the source give for GGAGGUCUGUCUGGAUCCATT against Cxcl5 here?
Its z-score is inactive: 0.551.

With GGCUGUUACAUUCUAUAUUTT against Kif5c as the sequence, how does the z-score read?
The z-score was inactive: 0.593.

Which z-score does the source give for GCAUCAUUCGUUAUGCAAUTT against Itgax here?
The z-score was inactive: 1.47.

With GCCGGUGAAGACCAUUCACTT against Paox as the sequence, how does the z-score read?
The z-score was inactive: 0.219.

With GGAGGACUUUGUGUCUUACTT against Pald as the sequence, how does the z-score read?
Its z-score is inactive: -1.23.

Which z-score does the source give for GGAUCUCGCUGGCAAUAAUTT against Gpr45 here?
Its z-score is inactive: -0.242.

With “CCUUUUAGGCUUCCAGAAUTT against 0610009O03Rik” as the sequence, how does the z-score read?
The z-score was inactive: 0.14.

Which z-score does the source give for GGCCGAGAAGAUCAAAGCATT against Mrpl12 here?
The z-score was inactive: 0.175.

With GGAAUUAUCUCACGGCCAGTT against Il17c as the sequence, how does the z-score read?
Its z-score is inactive: -0.501.

Which z-score does the source give for GCAAGGUGUUCUGACCCAUTT against Rps6 here?
The z-score was inactive: -3.14.

For GCCUUGCUGUCAAACCACUTT against Krtap9-1, which z-score is on record?
Its z-score is inactive: -0.132.
